Assay [1] addresses GFP-MYO7A (mouse) (mouse) (UniProt P97479). In words: co-IP; HEK293 cells co-transfected; RIPA extract; 138-1 anti-MYO7A beads, 1 hr room temperature, washed with RIPA, eluted with 2% SDS; immunoblot (anti-PDZD7 or anti-GFP). A general note: A western blot detects proteins with antibodies after separation by electrophoresis.
Assay [2] has as its target ANKRD24-GFP (mouse) (mouse) (UniProt Q80VM7). As to the kind of experiment: co-IP; HEK293 cells co-transfected; immunoprecipitation with anti-GFP antibody, detection with anti-Strep.

Sequences of proteins named here, by UniProt entry; tags and fusion partners are left off.
UniProt P97479: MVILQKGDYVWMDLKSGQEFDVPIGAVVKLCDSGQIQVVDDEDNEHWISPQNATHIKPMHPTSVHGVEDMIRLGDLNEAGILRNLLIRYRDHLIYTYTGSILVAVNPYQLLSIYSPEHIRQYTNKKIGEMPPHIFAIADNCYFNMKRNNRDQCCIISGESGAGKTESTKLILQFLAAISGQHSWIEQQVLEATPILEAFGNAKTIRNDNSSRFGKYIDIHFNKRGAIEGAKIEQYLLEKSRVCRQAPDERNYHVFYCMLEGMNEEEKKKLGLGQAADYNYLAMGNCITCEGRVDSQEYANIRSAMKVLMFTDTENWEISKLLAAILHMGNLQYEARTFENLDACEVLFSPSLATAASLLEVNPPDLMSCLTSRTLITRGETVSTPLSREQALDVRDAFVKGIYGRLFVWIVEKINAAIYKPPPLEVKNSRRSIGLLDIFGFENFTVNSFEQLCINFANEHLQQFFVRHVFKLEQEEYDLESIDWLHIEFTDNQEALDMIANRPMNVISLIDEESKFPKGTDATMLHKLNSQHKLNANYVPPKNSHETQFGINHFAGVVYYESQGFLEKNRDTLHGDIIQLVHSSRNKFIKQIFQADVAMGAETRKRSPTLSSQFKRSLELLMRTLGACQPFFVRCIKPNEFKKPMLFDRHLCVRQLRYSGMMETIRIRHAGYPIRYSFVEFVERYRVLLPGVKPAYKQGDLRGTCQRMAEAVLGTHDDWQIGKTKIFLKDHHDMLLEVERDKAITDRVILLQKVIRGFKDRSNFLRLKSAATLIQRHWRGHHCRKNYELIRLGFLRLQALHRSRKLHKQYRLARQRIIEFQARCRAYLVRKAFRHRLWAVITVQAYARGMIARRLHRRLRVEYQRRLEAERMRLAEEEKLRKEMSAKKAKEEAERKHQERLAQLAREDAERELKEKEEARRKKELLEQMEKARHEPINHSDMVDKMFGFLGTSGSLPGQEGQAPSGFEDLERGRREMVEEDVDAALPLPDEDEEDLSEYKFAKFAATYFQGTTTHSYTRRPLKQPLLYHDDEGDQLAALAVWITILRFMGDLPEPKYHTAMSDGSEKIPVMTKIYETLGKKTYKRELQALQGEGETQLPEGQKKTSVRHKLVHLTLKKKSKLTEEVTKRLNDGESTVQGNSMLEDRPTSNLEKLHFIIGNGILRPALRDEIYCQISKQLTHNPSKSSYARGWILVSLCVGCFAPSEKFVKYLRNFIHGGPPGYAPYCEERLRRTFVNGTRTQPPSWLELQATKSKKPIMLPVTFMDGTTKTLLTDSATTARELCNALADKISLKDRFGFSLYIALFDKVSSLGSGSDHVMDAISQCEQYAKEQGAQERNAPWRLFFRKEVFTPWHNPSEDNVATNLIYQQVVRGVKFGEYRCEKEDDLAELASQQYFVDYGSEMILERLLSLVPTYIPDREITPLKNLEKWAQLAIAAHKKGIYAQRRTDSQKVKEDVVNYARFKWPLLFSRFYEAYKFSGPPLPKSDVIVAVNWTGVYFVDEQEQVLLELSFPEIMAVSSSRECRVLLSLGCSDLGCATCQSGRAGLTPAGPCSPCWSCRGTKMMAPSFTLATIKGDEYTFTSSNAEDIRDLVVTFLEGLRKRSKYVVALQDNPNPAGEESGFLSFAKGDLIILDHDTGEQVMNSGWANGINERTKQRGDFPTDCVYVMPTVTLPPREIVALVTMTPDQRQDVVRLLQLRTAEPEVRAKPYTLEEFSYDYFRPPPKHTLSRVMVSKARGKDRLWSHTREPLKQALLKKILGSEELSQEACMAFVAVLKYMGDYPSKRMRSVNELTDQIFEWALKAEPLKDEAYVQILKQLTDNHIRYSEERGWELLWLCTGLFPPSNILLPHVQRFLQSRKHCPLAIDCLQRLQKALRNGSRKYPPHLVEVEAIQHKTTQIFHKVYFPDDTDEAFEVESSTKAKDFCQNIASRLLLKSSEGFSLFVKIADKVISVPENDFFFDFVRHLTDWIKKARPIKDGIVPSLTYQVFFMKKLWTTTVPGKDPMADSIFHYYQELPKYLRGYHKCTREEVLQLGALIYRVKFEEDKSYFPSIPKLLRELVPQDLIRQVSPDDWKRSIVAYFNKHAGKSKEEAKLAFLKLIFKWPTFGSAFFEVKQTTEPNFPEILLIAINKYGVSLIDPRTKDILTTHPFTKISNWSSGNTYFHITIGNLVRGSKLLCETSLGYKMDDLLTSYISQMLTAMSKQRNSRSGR
UniProt Q80VM7: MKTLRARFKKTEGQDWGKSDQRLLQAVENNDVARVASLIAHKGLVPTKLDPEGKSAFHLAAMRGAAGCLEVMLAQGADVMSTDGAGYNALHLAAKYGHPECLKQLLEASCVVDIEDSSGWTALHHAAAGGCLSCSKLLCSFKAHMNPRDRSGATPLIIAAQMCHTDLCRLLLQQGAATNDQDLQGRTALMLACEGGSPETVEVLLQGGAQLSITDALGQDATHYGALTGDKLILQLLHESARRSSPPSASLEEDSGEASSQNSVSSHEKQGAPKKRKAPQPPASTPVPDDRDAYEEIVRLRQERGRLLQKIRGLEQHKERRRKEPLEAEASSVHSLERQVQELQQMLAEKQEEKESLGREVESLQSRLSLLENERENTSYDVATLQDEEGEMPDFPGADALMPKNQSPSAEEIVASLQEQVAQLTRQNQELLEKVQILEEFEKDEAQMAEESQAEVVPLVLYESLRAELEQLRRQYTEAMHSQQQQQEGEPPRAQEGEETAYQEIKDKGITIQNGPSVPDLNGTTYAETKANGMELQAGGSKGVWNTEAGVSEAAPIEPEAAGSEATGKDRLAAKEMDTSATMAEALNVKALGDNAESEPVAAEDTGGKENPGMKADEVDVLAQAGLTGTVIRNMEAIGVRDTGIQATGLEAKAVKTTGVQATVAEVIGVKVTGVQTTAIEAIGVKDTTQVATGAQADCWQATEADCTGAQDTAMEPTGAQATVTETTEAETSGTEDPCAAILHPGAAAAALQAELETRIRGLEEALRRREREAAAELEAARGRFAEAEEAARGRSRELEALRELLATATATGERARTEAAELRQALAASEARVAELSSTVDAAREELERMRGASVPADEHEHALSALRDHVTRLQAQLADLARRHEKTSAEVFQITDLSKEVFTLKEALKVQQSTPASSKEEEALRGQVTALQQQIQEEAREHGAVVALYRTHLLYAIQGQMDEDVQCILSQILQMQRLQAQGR

No constants are given. Whether binding was seen depends on the method and setting. In cells and extracts the contact can be indirect. Some entries that bind do so weakly or less than the wild type.

B1: mCherry-PDZD7 (mouse), in HEK293 (natural protein, UniProt E9Q9W7 1-1021, looked up)
chain: MARGFTVGFDPLGLGELSSGSLSSVSSRGHLGSDSGSTATRYLLRKQQRLLNGPSRGIRASSPMGRVILINSPIEANSDESDIIHAVRVEKSPSGRLGFSVRGGSEHGLGIFVSKVEEGSSAERAGLCVGDKITEVNGLSLESTTMGSAVRLLTSSSCLHMMVRRMGRVPGIKFSKEKTTWVDVVNRRLVVEKCSSTPSDRSSEDGVRRIVHLYTTSDDFCLGFNIRGGKEFGLGIYVSKVDHGGLAEENGIKVGDQVLAANGVRFDDISHSQAVEVLKGQTHIMLTIKETGRYPAYKEMVSEYCWLDRLSNGVLQQLSPASESSSSVSSYASSAPCSSGSLPSDRMDVCLGPEEPTSHGPGWGRADTAMQTEPDLDSRVETWCSVRPTVILRDTAIRSDGPSSTRHLDSALSESPKTALLLALSRPRTPITRSQSHLTLWEEKKQRKKEKSGSSGEKGALQRSKTLMNLFFKGGRQGRPAGDGHREAWTLDSRSPTKVRPRLDLEKAGSVGPVQKFVTWRLRRDRERGRALLSARSGSPSGQAPTVNEQVQAWESRRPLIQDLARRLLTDDEVLAVTRHCSRYVHEGGVEDLVRPLLAILDRPTKLLLLRDIRSVVAPTDLGRFDSMVMPVELEAFEALKSRAVGPSALRPTRQDTPPKRHLITPVPDSRGGFYLLPVNSSEDEDGEIREKLGVLKVSLGASAPHHKGIPPLQDVPVDAFSLRRGACAPPPQPPPVAPRPPRPNWLLTEPLSREDTQQNQSQTPAQSCSRSRSRSRSRSHSRGQGKSPGRRRSPSPAPIATAATANGRYHRPRKARPLLPRLLDGQVAKVGARQGPLENGRIAEEAVGNVSTGALRTITLSKMKQSLGISISGGIESKVQPMVKIEKIFPGGAAFLCGDLQAGFELVAVDGESLEQVTHQRAVDTIRRAYRNKAREPMELVVRVPGPGLLPLASDLRVVKDQSLAPDCPSALGPVDDARILTQLPPPEARQLQQSLSSALKVPQSIPKLSPILKDPHDPS
notes: PDZD7, mouse, cloned into pmCherry-C1; also called PDZD7 fused to mCherry; source: HEK293, transfected, in RIPA extract; not shown: mCherry, N-terminal, kept
Turning to B1, the binding result in assay [1] was “binds”.

B2: PDZD7-Strep (mouse) (protein, UniProt E9Q9W7 1-1021)
chain: B1 chain
With B2, in assay [2], the binding entry is given as “no binding”.

For the origin of these results see article PMC5005036, “PDZD7-MYO7A complex identified in enriched stereocilia membranes” (eLife, 2016).
